# Results reported in PubChem BioAssay AID1347076 (National Center for Advancing Translational Sciences (NCATS), 2019).
# Screen size: about 400,000 compounds; about 13,000 (3.2%) were called active. Inconclusive means that the source gave no clear call. Such entries were picked first, then a sample of the others. Calls come from the whole dose curve; as a rule, active = well fitted cell-killing curve with a large enough effect; inconclusive = small, poorly fitted or top-dose-only effect, or effect the other way; inactive = flat fitted curve, though single readings scatter. Potencies of inconclusive entries are doubtful fits and often do not repeat.
# Test: qHTS assay for MDR1-selective chemotherapeutics: Primary screen using the drug-selected MDR subline cells KB-V1; note: nearly all actives have a fitted effect of over 60% in size
# Conditions: KB-V1 MDR cells viability, CellTiter-Glo, 72 h; activity change, negative = cytotoxicity: at 46.1 µM (top of the series)
# Summary of the method: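 Following 72 h at 37 degrees C with compound, KB-V1 cell viability was read by CellTiter-Glo luminescence, medium being phenol-red-free DMEM plus 10% FBS; concentration-response parameters came from normalized, curve-fitted qHTS data.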
# % is set by controls: 0 for no effect and ±100 for the full control effect; potency is the fitted concentration of half-maximal effect.
Structure (SMILES),"activity change, negative = cytotoxicity",Potency
CCOc1c(O)ccc(/C=C2\SC(=S)NC2=O)c1[N+](=O)[O-],inactive: 1.49%,–
O=C(c1ccc(Cl)c(Cl)c1)N1CCC(=O)N([C@H](COCc2ccccc2)Cc2ccccc2)CC1,–,"inconclusive: 6.51 µM [cytotoxic, partial curve]"
O=c1[nH]c(/C=C\c2cccs2)nc(O)c1[N+](=O)[O-],inactive: 2.7%,–
Nc1nc(F)nc2c1ncn2[C@@H]1O[C@H](CO)[C@@H](O)[C@H]1O,–,active: 1.46 µM
C[C@H](NS(=O)(=O)c1ccc(Cl)c(Cl)c1)C(=O)OCc1cc(=O)n2cc(Br)ccc2n1,–,"inconclusive: 0.0073 µM [cytotoxic, full curve]"
Cc1cc(C)n2nc(SCc3c(F)cccc3Cl)nc2n1,–,"inconclusive: 2.91 µM [rising, partial curve, poor fit]"
O=C(NC1CC1)c1ccc(-c2cnc3cccnn23)cc1,inactive: 0.127%,–
CC(C)=CCN1CCN(Cc2cc(C(C)C)n[nH]2)CC1CCO (stereo not given),inactive: 3.74%,–
COc1cccc(-c2nc(CS(=O)CC(=O)NCCc3ccc(C)cc3)c(C)o2)c1 (stereo not given),–,"inconclusive: 0.517 µM [rising, full curve]"
C=CCNc1oc(-c2cccs2)nc1S(=O)(=O)c1ccccc1,–,"inconclusive: 18.4 µM [cytotoxic, partial curve]"
COc1cccc(-c2nc(CS(=O)CC(=O)NC3CCCCC3)c(C)o2)c1 (stereo not given),–,"inconclusive: 2.91 µM [rising, partial curve, poor fit]"
CCCCc1ccc(NC(=O)c2c(C)noc2C)cc1,inactive: 10.7%,–
O=C(CSc1nc(O)cc(=O)n1-c1ccccc1)Nc1ccccn1,–,"inconclusive: 29.1 µM [rising, single point]"
COc1ccc(CN2[C@@H](CC(=O)O)c3ccc(/C=C/C(=O)O)cc3S2(=O)=O)cc1,inactive: -3%,–
O=C(CSc1nccn1Cc1ccc(F)cc1)NCc1ccc(F)cc1,inactive: 8.68%,–
CCOC(=O)N/N=C/c1cn(CCCOc2ccc(C)cc2)c2ccccc12,–,active: 20.6 µM
CCOc1ccc(Nc2oc(Cc3ccccc3)nc2C#N)cc1,–,"inconclusive: 29.1 µM [cytotoxic, single point]"
CCCCN(CC)S(=O)(=O)c1ccc(C(=O)N(CCCN(C)C)c2nc3cc(C)cc(C)c3s2)cc1,–,active: 25.9 µM
COc1ccc(Nc2cc(C(=O)NC3CCCC3)c3ccccc3n2)cc1,inactive: -1.26%,–
COc1cc(C(=O)N(Cc2ccccn2)CC2CCCO2)cc(OC)c1OC (stereo not given),–,"inconclusive: 20.6 µM [cytotoxic, single point]"
CCNc1nc(N)c(C(=O)c2ccc(Cl)s2)s1,–,"inconclusive: 23.1 µM [cytotoxic, single point]"
CCc1nn2c(=O)c(S(=O)(=O)Nc3ccc(Br)cc3F)c(C)nc2s1,inactive: 15.6%,–
CCOC(CCn1c(SCc2cccc([N+](=O)[O-])c2)nc2ccccc2c1=O)OCC,inactive: 28.4%,–
CCOC(=O)c1c(C)[nH]c(C(=O)COC(=O)C(C)N2C(=O)C3CCCCC3C2=O)c1C (stereo not given),–,"inconclusive: 2.59 µM [cytotoxic, full curve]"

Structure (SMILES),"activity change, negative = cytotoxicity",Potency
CCN(CC)S(=O)(=O)c1cc(C(=O)Nc2ccncc2)ccc1Cl,–,active: 16.4 µM
O=C(c1cc2n(n1)C(C(F)(F)F)CC(c1ccco1)N2)N1CCc2ccccc2C1 (stereo not given),–,"inconclusive: 10.3 µM [cytotoxic, partial curve, poor fit]"
Cc1nc(-c2nnc(SCC(=O)Nc3cc(Cl)cc(Cl)c3)n2C)cs1,–,"inconclusive: 5.8 µM [cytotoxic, full curve, poor fit]"
COc1ccccc1CCC(=O)Nc1ccc2c(c1)CN(Cc1ccc(CO)o1)CC2,–,"inconclusive: 25.9 µM [cytotoxic, partial curve, poor fit]"
NC(=O)c1nn2c(C(F)(F)F)cc(-c3ccc(Br)cc3)nc2c1Cl,inactive: -19.3%,–
C[C@H](CO)N1C[C@H](C)[C@@H](CN(C)Cc2ccc(C(=O)O)cc2)Oc2ccc(NS(=O)(=O)c3cn(C)cn3)cc2C1=O,–,"inconclusive: 29.1 µM [rising, single point]"
CCCCNC(=O)C(NC(=O)Cc1cc(OC)cc(OC)c1)C(=O)c1ccccc1 (stereo not given),–,"inconclusive: 7.31 µM [cytotoxic, partial curve]"
C=CCN1C(=O)c2ccc(C(=O)N3CCN(c4ccccc4OC)CC3)cc2C1=O,inactive: -9.14%,–
O=C1NC(=Nc2ccc(O)cc2)S/C1=C/c1ccco1,–,active: 8.2 µM
CSc1nc2sc(-c3ccccc3)cc2c(=O)n1N,–,active: 9.2 µM
Cc1nn(C)cc1S(=O)(=O)Nc1cccc(Cl)c1,–,"inconclusive: 20.6 µM [rising, partial curve, poor fit]"
CC[C@H]1CN2CCc3cc(OC)c(OC)cc3C2C[C@@H]1C[C@H]1NCCc2cc(OC)c(OC)cc21 (stereo not given in full),–,active: 2.06 µM
Cc1nc(N2CCNCC2)c2c3c(sc2n1)CCCC3,–,"inconclusive: 20.6 µM [cytotoxic, single point]"
Cc1nc2cc(NCc3ccccc3O)ccc2n1Cc1ccccc1,–,"inconclusive: 23.1 µM [cytotoxic, single point]"
CCCOc1ccc2c(c1)C(=NN=C(N)N)c1cc(OCCC)ccc1-2,–,"inconclusive: 23.1 µM [cytotoxic, single point]"
COc1cc(C(=O)N2CCN(C/C=C/c3ccccc3)CC2)cc(OC)c1C,–,"inconclusive: 23.1 µM [cytotoxic, single point]"
CCC(C)NC(=O)c1ccccc1NC(=O)CN(c1ccc(OC)cc1)S(C)(=O)=O (stereo not given),inactive: 0.09%,–
NS(=O)(=O)OCc1ccc(C(F)(F)F)cc1,–,"inconclusive: 20.6 µM [rising, single point]"
Cc1ccc2c(c1)c1c3n2CCN(C(=O)c2ccc(C(F)(F)F)cc2)C3CCC1 (stereo not given),–,"inconclusive: 20.6 µM [cytotoxic, single point]"
Nc1cc(C(F)(F)F)ccc1N1CCOCC1,–,active: 20.6 µM
C[C@@H]1CCCCO[C@H](CN(C)C(=O)c2ccccc2)[C@@H](C)CN([C@H](C)CO)C(=O)c2cc(NC(=O)NC3CCCCC3)ccc2O1,–,"inconclusive: 20.6 µM [rising, single point]"
Cc1nn(Cc2ccc(Cl)cc2Cl)c(C)c1NC(=O)Cn1nc([N+](=O)[O-])c(Cl)c1C,–,"inconclusive: 7.31 µM [cytotoxic, partial curve]"
Cn1nc(C(=O)Nc2sccc2C(N)=O)ccc1=O,–,"inconclusive: 23.1 µM [cytotoxic, partial curve, poor fit]"
O=C(Cc1ccccc1)NC(=S)Nc1cccc(C(F)(F)F)c1,inactive: -7.91%,–

Structure (SMILES),"activity change, negative = cytotoxicity",Potency
CC(C)Oc1ccc(C(=O)CCN2CCCCC2)cc1,inactive: -3.43%,–
CC(C)C[C@@H](COCc1ccc([N+](=O)[O-])cc1)N1CCN(C(=O)c2ccc(C(F)(F)F)cc2)CCC1=O,–,"inconclusive: 29.1 µM [cytotoxic, single point]"
Cc1nc(C)c(C(=O)NCCC(c2ccccc2)c2ccccc2)o1,–,active: 8.2 µM
Cc1cc(NC(=O)CCCSc2nc(-c3ccco3)cc(C(F)(F)F)n2)n(-c2ccccc2)n1,–,active: 2.91 µM
CCN(c1ccccc1)S(=O)(=O)c1cc(NC(=O)Nc2ccccc2C#N)ccc1Cl,inactive: -24%,–
COc1cccc(C(=O)Oc2ccc(/C=N/NC(=O)c3ccncc3)cc2OC)c1,–,"inconclusive: 29.1 µM [rising, single point]"
CC(C)(C)OC(=O)NCCc1nnc(SCc2ccc(Cl)cc2Cl)o1,–,"inconclusive: 23.1 µM [cytotoxic, single point]"
CCc1nn(-c2cc(Cl)ccc2OC)c2c1C(=O)CCC2,–,"inconclusive: 16.4 µM [cytotoxic, single point]"
CCOP(=O)(OCC)c1nc(Cc2ccccc2)oc1NCc1ccccc1,–,"inconclusive: 6.51 µM [cytotoxic, full curve]"
CCOC(=O)c1c(C)oc2c(CC(=O)c3ccccc3)c(Cl)c(O)c(O)c12,–,"inconclusive: 23.1 µM [cytotoxic, partial curve, poor fit]"
COC(=O)[C@H](CC(C)C)NC(=O)NCCCc1ccccc1,–,"inconclusive: 29.1 µM [rising, single point]"
COC(=O)[C@]12CCCCC=C1N(Cc1cccc3ccccc13)C(=O)[C@H](CC(=O)NCc1ccc(C)o1)C2,–,"inconclusive: 18.4 µM [cytotoxic, single point]"
Cc1ccc(NC(=O)CN2CCOCC2)c(Br)c1,–,"inconclusive: 29.1 µM [rising, single point]"
CCn1c(CSc2nc(C)cc(C)n2)nnc1SCC(=O)N1CCCc2ccccc21,–,active: 20.6 µM
Cc1cc(C(=O)COc2ccccc2Cl)c(C)n1C1CC1,–,"inconclusive: 14.6 µM [cytotoxic, partial curve, poor fit]"
Cc1cc(C2C(=O)C(C(=O)c3ccc(Cl)cc3)C(=O)CC2(C)C)on1 (stereo not given),–,"inconclusive: 16.4 µM [cytotoxic, partial curve, poor fit]"
O=C1C=C(c2cccc3c2Oc2ccccc2S3)C[C@@H](c2ccc(Cl)cc2)C1,inactive: 0%,–
C/C(=N\NC(=O)C(O)(c1ccccc1)c1ccccc1)c1ccc(C)o1,–,"inconclusive: 29.1 µM [cytotoxic, single point]"
CC(OC(=O)C1CCCC1)C(=O)Nc1ncc(Cl)cc1Cl (stereo not given),–,"inconclusive: 4.61 µM [rising, full curve]"
O=C(COc1ccc(Br)cc1CNC1CCCCC1)NCCc1ccccc1,–,"inconclusive: 8.2 µM [cytotoxic, partial curve]"
C#C[C@]1(O)CCC2C3CCC4=CC(=O)CC[C@@H]4C3CC[C@@]21C (stereo not given in full),–,active: 2.91 µM
CCn1nnc(NC(=O)c2ccco2)n1,inactive: 1.18%,–

# Part of the list above, reformatted.
Structure (SMILES)	activity change, negative = cytotoxicity	Potency
CC(C)Oc1ccc(C(=O)CCN2CCCCC2)cc1	inactive: -3.43%	–
CC(C)C[C@@H](COCc1ccc([N+](=O)[O-])cc1)N1CCN(C(=O)c2ccc(C(F)(F)F)cc2)CCC1=O	–	inconclusive: 29.1 µM [cytotoxic, single point]
Cc1cc(NC(=O)CCCSc2nc(-c3ccco3)cc(C(F)(F)F)n2)n(-c2ccccc2)n1	–	active: 2.91 µM
CCN(c1ccccc1)S(=O)(=O)c1cc(NC(=O)Nc2ccccc2C#N)ccc1Cl	inactive: -24%	–
COc1cccc(C(=O)Oc2ccc(/C=N/NC(=O)c3ccncc3)cc2OC)c1	–	inconclusive: 29.1 µM [rising, single point]
CC(C)(C)OC(=O)NCCc1nnc(SCc2ccc(Cl)cc2Cl)o1	–	inconclusive: 23.1 µM [cytotoxic, single point]
COC(=O)[C@H](CC(C)C)NC(=O)NCCCc1ccccc1	–	inconclusive: 29.1 µM [rising, single point]
Cc1cc(C(=O)COc2ccccc2Cl)c(C)n1C1CC1	–	inconclusive: 14.6 µM [cytotoxic, partial curve, poor fit]
O=C1C=C(c2cccc3c2Oc2ccccc2S3)C[C@@H](c2ccc(Cl)cc2)C1	inactive: 0%	–
C/C(=N\NC(=O)C(O)(c1ccccc1)c1ccccc1)c1ccc(C)o1	–	inconclusive: 29.1 µM [cytotoxic, single point]
O=C(COc1ccc(Br)cc1CNC1CCCCC1)NCCc1ccccc1	–	inconclusive: 8.2 µM [cytotoxic, partial curve]
C#C[C@]1(O)CCC2C3CCC4=CC(=O)CC[C@@H]4C3CC[C@@]21C (stereo not given in full)	–	active: 2.91 µM
